Assay results: publication PMC4797308
No constants are given. Whether binding was seen depends on the method and setting. In cells and extracts the contact can be indirect. Some results given as binding are weak or reduced against the parent protein; the word gives no strength.

The chains behind the UniProt entries cited, without tags or fusion partners.
UniProt Q15366: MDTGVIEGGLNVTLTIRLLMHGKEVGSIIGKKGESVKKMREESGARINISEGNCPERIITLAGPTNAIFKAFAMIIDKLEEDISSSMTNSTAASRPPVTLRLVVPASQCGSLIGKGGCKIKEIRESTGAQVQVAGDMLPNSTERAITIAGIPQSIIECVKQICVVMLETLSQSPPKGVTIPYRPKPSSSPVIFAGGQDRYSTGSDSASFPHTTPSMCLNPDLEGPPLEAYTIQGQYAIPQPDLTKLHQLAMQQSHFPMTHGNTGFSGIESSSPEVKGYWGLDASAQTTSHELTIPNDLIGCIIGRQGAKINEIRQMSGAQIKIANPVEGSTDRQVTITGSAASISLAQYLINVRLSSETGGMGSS
UniProt Q15365: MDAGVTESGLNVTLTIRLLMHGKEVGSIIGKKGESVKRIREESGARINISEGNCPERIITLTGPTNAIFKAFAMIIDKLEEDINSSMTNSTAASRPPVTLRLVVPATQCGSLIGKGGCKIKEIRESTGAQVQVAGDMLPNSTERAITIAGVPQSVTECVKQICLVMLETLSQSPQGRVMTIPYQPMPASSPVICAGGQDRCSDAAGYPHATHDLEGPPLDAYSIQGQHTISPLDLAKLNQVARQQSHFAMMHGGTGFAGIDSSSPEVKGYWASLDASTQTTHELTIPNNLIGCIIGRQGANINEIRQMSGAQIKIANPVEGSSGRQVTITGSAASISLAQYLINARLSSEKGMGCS
UniProt Q13435: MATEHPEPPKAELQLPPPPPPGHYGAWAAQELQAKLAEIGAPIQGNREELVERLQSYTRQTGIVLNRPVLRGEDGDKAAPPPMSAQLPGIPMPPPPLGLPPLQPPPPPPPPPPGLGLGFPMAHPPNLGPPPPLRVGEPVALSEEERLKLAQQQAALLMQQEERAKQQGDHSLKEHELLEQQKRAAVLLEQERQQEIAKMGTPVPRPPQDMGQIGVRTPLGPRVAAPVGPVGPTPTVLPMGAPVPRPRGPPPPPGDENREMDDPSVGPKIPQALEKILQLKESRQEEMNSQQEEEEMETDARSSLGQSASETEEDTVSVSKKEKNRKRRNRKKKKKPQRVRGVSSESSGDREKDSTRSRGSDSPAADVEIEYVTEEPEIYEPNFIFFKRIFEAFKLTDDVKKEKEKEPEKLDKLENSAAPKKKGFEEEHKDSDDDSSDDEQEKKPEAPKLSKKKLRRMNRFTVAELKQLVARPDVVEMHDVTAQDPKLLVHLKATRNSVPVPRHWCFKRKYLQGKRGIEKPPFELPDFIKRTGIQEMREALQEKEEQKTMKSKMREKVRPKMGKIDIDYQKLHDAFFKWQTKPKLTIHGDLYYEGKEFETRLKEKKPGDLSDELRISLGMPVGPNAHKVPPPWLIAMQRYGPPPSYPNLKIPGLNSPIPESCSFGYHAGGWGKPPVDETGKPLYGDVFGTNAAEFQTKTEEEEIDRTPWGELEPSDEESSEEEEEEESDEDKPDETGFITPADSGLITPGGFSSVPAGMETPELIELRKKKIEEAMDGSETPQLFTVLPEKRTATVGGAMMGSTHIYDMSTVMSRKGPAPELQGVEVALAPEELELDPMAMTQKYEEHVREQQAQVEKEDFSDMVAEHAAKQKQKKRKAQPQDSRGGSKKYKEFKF

Tests used:
[1] = target: αCP2 (human (endogenous in K562)) (UniProt Q15366); experiment: co-IP; K562 lysate in 50 mM HEPES pH 7.4, 150 mM NaCl, 1 mM EDTA, 10% glycerol, 1% Triton-X-100, 100 μg/ml RNase A, 4°C; IP with isotype-specific antisera to αCP1 or αCP2 on magnetic beads, preimmune serum as control; Western blot for SF3B2 and U2AF65
[2] = target: αCP1 (human (endogenous in K562)) (UniProt Q15365); experiment: as above

Question: Which results are given for “subunit 2 of the splicing factor 3b protein complex, SF3B2–145 (from UniProt Q13435 1-895)”?
Answer: binding [1]: binds; binding [2]: binds
